Laboratory results taken from PubChem BioAssay AID1347423 (Functional Genomics Laboratory (NCATS/FGL), 2020).
Hit rate of the full screen: of about 52,000 sequences, about 210 (0.4%) were called active.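 Rule for the calls: active = gene whose silencing raises cell survival under the drug, median off-target-corrected z-score across its silencing RNAs 2 or more; inactive = the rest.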 The list shows a part of the results.

Assay: Resistance to Poly (ADP-Ribose) Polymerase inhibitor: Gene Identification via Genome-wide siRNA Screen
Conditions: mouse BRCA2 R2336H ES cells, olaparib, CellTiter-Glo viability; hits give high values
Procedure, shortened: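 Mouse BRCA2 R2336H ES cells were reverse-transfected with siRNA (20 nM final), treated at 48 h with 500 nM olaparib, and read by CellTiter-Glo after 72 h. Scores: MAD-based z per siRNA, median per gene, seed off-target correction.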

Q: Which z-score does the source give for GCAGGCAUCAUUACAAAAATT against BC003262 here?
A: inactive: -0.0363

Q: With “GCAACCUUUUUACAACACCTT against 8430426H19Rik” as the sequence, how does the z-score read?
A: inactive: 1.12

Q: Which z-score does the source give for GGUUUUAACAUGAGCAGCCTT against Ofcc1 here?
A: inactive: 0.224

Q: With GGAGAUCAGUUAACCCUACTT against Crisp2 as the sequence, how does the z-score read?
A: inactive: -0.0974

Q: Which z-score does the source give for GGAAGGUCUAGUUGAUUGUTT against Klrb1a here?
A: inactive: -0.118

Q: With GGACAACAUUAUAGGAAAGTT against Neu3 as the sequence, how does the z-score read?
A: inactive: 2.46

Q: For GGACCAUGGCAUUAAACUGTT against Edg1, which z-score is on record?
A: inactive: 0.167

Q: With GGCAUCAAGUGACUUAUAATT against BC023179 as the sequence, how does the z-score read?
A: inactive: -1.5

Q: Which z-score does the source give for GCUUUGAGCAGCUAGGUUATT against Tpcn2 here?
A: inactive: 0.236

Q: For GGUGAUGCAGAAAGGUGGATT against H2-M10.5, which z-score is on record?
A: inactive: -0.746

Q: Which z-score does the source give for GGAGAAACACUAUUUUGGATT against BC013529 here?
A: inactive: 0.894

Q: For GGAAGUUAGCCCUAAAGUUTT against Uchl1, which z-score is on record?
A: inactive: -0.535

Q: For GGACACCUACUUGGUAUUGTT against Epor, which z-score is on record?
A: inactive: -1.48

Q: For “GCGCGUGUGAAAUAAACAUTT against 9130011E15Rik”, which z-score is on record?
A: inactive: 1.45

Q: Which z-score does the source give for CCAAGAUCUCAGUUGUCUCTT against Mtif2 here?
A: inactive: -0.502

Q: With GGCCGACCUUUCUAUCAAUTT against Rasip1 as the sequence, how does the z-score read?
A: inactive: 0.915

Q: Which z-score does the source give for CGAACUGGUAGAAGUUAUUTT against Galnact2 here?
A: inactive: 0.79

Q: Which z-score does the source give for “CCUUAAGCACCAUAAAUUATT against 2510003E04Rik” here?
A: inactive: 0.622

Q: With “CGAAUACGAAAAAAUCGACTT against 1500006O09Rik” as the sequence, how does the z-score read?
A: inactive: -0.342

Q: With GGAAAACAGAAAUGGUUUATT against Slc39a10 as the sequence, how does the z-score read?
A: inactive: 0.58

Q: For GGUGUACAACUCCUAUAGGTT against P2ry13, which z-score is on record?
A: inactive: 1.28

Q: For GCUAGACGGGUGUUUAAGATT against Tiam2, which z-score is on record?
A: inactive: -2.14

Q: For GCUCUUUCCCGACAUUCCCTT against Nans, which z-score is on record?
A: inactive: -0.348

Q: Which z-score does the source give for “GGCCAGUGAGCAGCAUUAUTT against 6330509G02Rik” here?
A: inactive: 0.489

Q: With GGAGAUUGUGCCAUCCAUGTT against Ccnd1 as the sequence, how does the z-score read?
A: inactive: 0.609

Q: With GGCUACAUAGGAUCCACAATT against Prm2 as the sequence, how does the z-score read?
A: inactive: 0.459

Q: With GGAGCUGAGGGAACCUUGUTT against Slc35c1 as the sequence, how does the z-score read?
A: inactive: -1.21

Q: Which z-score does the source give for “CCCAAAAGAUCACAAAGUUTT against E330017E16” here?
A: inactive: -0.911

Q: With GGCUUCUGUGGCAGAUAAGTT against Pspn as the sequence, how does the z-score read?
A: inactive: 0.413

Q: Which z-score does the source give for CGGGAAAUCAUAAAACAGGTT against Chd4 here?
A: inactive: -0.81

Q: With “GGUACAUGAAGAAAAGUAATT against 9130022A01Rik” as the sequence, how does the z-score read?
A: inactive: 1.36

Q: Which z-score does the source give for “GGAUUAUGUGUCGUUUGGATT against 4732437J24Rik” here?
A: inactive: 0.0477

Q: Which z-score does the source give for UAGAAGAUGCAACCUUGCUTT against Adam34 here?
A: inactive: -0.354

Q: Which z-score does the source give for GGUUCUUUAAUAGAACAUGTT against Tyrp1 here?
A: inactive: -0.207

Q: For GCACUACACUGAUUUGCUATT against Actr1b, which z-score is on record?
A: inactive: -1.11

Q: Which z-score does the source give for UCAACAGGGCUGAUAUCCCTT against Acsl5 here?
A: inactive: -0.897

Q: Which z-score does the source give for GCAUCACUGGAUUGUGGAUTT against Tm9sf2 here?
A: inactive: -1.19

Q: For CCUUGAGCAUAUCUUCUGUTT against Olfr420, which z-score is on record?
A: inactive: 0.367

Q: Which z-score does the source give for “CGACAUGAGCAACGUAGUCTT against 4933434G05Rik” here?
A: inactive: -0.327

Q: For GCAACAAGACUCGCAUCAUTT against Cbln4, which z-score is on record?
A: inactive: 2.24

Q: Which z-score does the source give for “GGCAGAAAAACUGUGCAACTT against E430025E21Rik” here?
A: inactive: 0.764

Q: With “GGCCAUCAUGAUUGGCGAUTT against 2310007H09Rik” as the sequence, how does the z-score read?
A: inactive: 0.969

Q: Which z-score does the source give for GGACUAUGCUGUCCAGAUCTT against Ntn1 here?
A: inactive: -0.555

Q: Which z-score does the source give for GGUCUUCGGUUUUUUAUACTT against Olfr908 here?
A: inactive: -0.417

Q: With GGUUGACAAUUUUCUCAAGTT against Prl as the sequence, how does the z-score read?
A: inactive: 0.758

Q: With GGAGUGGCUAUGUUUUCGATT against Hrg as the sequence, how does the z-score read?
A: inactive: 0.883

Q: For GGAAUUAACGUGUUUCUGUTT against Ifrg15, which z-score is on record?
A: inactive: 0.702

Q: With GCUCGGUCUUCAUCCCAAATT against BC016548 as the sequence, how does the z-score read?
A: inactive: -0.525

Q: Which z-score does the source give for GGAGACUACAAAGGAGAGCTT against Igfbp6 here?
A: inactive: 1.5

Q: For GGAAAGGACUAAGUCAGGATT against Mdk, which z-score is on record?
A: inactive: 1.35

Q: Which z-score does the source give for GCCCAAACUCAUUGAGUUUTT against Cab39l here?
A: inactive: -0.304

Q: Which z-score does the source give for GGAGGAGACAGGCUAUUACTT against Usp25 here?
A: inactive: -1.59

Q: With “CGUGUUAGGUCUUCCUCCUTT against 1700113I22Rik” as the sequence, how does the z-score read?
A: inactive: -1.95

Q: Which z-score does the source give for CGAUAAGGAAGAGCGGAUCTT against Epn1 here?
A: inactive: 0.185

Q: With GGAACAAGAAGAAGAAAAATT against Slco3a1 as the sequence, how does the z-score read?
A: inactive: 2.2

Q: For GGUCGAGUUCACGGACUCUTT against Pitx2, which z-score is on record?
A: inactive: -1.8

Q: With “GGGAAAAUGGAAAAUACAUTT against 0610039A15Rik” as the sequence, how does the z-score read?
A: inactive: -0.849

Q: For GGCUACUGUUGCUGCAUUUTT against Lin7c, which z-score is on record?
A: inactive: -1.24

Q: With GGAAACAAAUGAGUGCCUGTT against Muted as the sequence, how does the z-score read?
A: inactive: -1

Q: Which z-score does the source give for “GCAAGUGACGGUUUAUCUGTT against 5830482G23Rik” here?
A: inactive: 1.07

Q: For CCUUAUCCAAGAGUAGGGCTT against AY534250, which z-score is on record?
A: inactive: 1.03

Q: For GGAGUAAAUAAGGACAUUGTT against Pcdha3, which z-score is on record?
A: inactive: -0.208

Q: With GCGGAGGUCACGUUUACAUTT against Crebbp as the sequence, how does the z-score read?
A: inactive: 2.13

Q: For GCGAUACCAGGGACUACAUTT against AI839920, which z-score is on record?
A: inactive: -0.789

Q: With GGCAGUGAAUCUCAAAUCCTT against Jam3 as the sequence, how does the z-score read?
A: inactive: -0.246

Q: With GGCGAUUCUGGCUCUCUUUTT against Commd9 as the sequence, how does the z-score read?
A: inactive: -1.31
